The source of these data is paper PMC4967927.

Amino acid sequences for entries named in this document (tags omitted). A change or cut given only in a name is not applied to a line headed by its entry. Chains listed by the source or under a name are the forms on record and can include a tag or linker.
UniProt Q925H0: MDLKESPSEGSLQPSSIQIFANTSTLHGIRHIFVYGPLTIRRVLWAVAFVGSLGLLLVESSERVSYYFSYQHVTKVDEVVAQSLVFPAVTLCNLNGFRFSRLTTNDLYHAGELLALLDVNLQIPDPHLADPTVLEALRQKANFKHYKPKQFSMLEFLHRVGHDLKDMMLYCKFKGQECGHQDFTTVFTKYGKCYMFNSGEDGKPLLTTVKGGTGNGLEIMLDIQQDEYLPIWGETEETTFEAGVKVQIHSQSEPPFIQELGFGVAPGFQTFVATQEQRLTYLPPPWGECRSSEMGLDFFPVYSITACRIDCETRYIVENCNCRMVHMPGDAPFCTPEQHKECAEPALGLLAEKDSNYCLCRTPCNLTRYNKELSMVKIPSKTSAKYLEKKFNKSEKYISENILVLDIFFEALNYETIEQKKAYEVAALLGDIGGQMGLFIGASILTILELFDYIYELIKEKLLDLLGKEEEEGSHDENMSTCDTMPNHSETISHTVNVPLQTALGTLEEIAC
HA-tagged ASIC2b (Q925H0-2, form named): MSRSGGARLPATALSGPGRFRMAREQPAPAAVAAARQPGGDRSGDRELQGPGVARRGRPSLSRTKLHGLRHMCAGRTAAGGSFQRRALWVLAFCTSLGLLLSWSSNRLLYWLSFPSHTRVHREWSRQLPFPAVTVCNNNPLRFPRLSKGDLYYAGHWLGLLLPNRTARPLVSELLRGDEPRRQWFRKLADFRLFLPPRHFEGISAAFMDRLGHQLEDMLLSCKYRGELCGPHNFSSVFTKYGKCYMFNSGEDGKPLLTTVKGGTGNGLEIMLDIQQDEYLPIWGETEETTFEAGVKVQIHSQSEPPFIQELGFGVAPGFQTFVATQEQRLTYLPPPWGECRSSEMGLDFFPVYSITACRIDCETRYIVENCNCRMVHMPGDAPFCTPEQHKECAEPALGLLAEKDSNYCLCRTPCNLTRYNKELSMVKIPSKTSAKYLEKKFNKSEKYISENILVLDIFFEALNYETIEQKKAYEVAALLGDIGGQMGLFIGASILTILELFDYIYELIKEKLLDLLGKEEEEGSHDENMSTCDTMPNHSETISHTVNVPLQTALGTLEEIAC

Results are given in words; binding and its absence hold for the method and conditions named. In cells and extracts the contact can be indirect. Some entries that bind do so weakly or less than the wild type.

Assay [1] deals with ASIC2b fused at its C-terminus to a Venus fragment for BiFC (mouse) (UniProt Q925H0). Nature of the assay: split reporter; Venus-based BiFC (VN173 and VC155) in HEK293T cells co-transfected with the two fusions; fixed after 24 h, confocal microscopy.
The target in assay [2] is ASIC2a fused at its C-terminus to a Venus fragment for BiFC (mouse) (UniProt Q925H0). Described as above.
Assay [3] addresses FLAG-tagged ASIC2b (acid-sensing ion channel 2b) (mouse) (UniProt Q925H0). Nature of the assay: proximity ligation; Duolink PLA on fixed HEK293T cells co-expressing HA-ASIC2a and FLAG-ASIC2b; primary anti-HA (mouse) and anti-FLAG (rabbit) antibodies; signal when the distance is <40 nm.
Assay [4] has the same target. Nature of the assay: co-IP; HEK293T cells co-expressing HA-ASIC2a and FLAG-ASIC2b; lysis in 20 mM HEPES pH 7.5, 150 mM NaCl, 1% NP-40, 0.1% SDS, 1 mM NaF; immunoprecipitated with anti-FLAG overnight at 4 °C, protein A/G PLUS-agarose, blotted with anti-HA.
For assay [5], the target named is GFP-tagged ASIC2a (mouse) (UniProt Q925H0). The experiment in a line: co-IP; HEK293T cells co-transfected with a GFP-tagged and an HA-tagged ASIC2 protein; lysis in 20 mM HEPES pH 7.5, 150 mM NaCl, 1% NP-40, 0.1% SDS, 1 mM NaF; immunoprecipitated with anti-GFP, blotted with anti-HA.
In assay [6] the target is GFP-tagged Ch3 (ASIC2b with residues 1-129 replaced by 1-85 of ASIC2a) (mouse) (UniProt Q925H0). Described as above.
The target of assay [7] is GFP-tagged 2b-TP (ASIC2b with the TM1 and the proximal post-TM1 domain replaced by those of ASIC2a) (mouse) (UniProt Q925H0). Described as above.

Regarding “ASIC2a fused at its C-terminus to a Venus fragment for BiFC (from UniProt Q925H0-1 1-512)”, the binding entry in assay [1] and in assay [2] was “binds” throughout.

For the substance “ASIC2b fused at its C-terminus to a Venus fragment for BiFC (from UniProt Q925H0-2 1-563)”, the binding result in assay [1] is recorded as “binds”.

Regarding “HA-tagged ASIC2a (acid-sensing ion channel 2a) (from UniProt Q925H0-1 1-512)”, the binding result in assay [3] and in assay [4] was “binds” in each case.

For the substance “HA-tagged ASIC2b (from UniProt Q925H0-2 1-563)”, the binding result in assay [5], in assay [6] and in assay [7] was “binds” throughout.
